Data reported in paper PMC12115080.
These are yes or no findings as the source states them, for the method shown. Binding seen in cells or lysates may run through a third protein. A result given as binding can be weak or reduced; the word gives no strength. Sequences can lack the tags named with a protein.

Protein sequences, listed by entry. Tags and fused reporters are not part of them. Lines headed by an entry give the natural chain unless they say otherwise; changes in a name come on top.
UniProt O22764: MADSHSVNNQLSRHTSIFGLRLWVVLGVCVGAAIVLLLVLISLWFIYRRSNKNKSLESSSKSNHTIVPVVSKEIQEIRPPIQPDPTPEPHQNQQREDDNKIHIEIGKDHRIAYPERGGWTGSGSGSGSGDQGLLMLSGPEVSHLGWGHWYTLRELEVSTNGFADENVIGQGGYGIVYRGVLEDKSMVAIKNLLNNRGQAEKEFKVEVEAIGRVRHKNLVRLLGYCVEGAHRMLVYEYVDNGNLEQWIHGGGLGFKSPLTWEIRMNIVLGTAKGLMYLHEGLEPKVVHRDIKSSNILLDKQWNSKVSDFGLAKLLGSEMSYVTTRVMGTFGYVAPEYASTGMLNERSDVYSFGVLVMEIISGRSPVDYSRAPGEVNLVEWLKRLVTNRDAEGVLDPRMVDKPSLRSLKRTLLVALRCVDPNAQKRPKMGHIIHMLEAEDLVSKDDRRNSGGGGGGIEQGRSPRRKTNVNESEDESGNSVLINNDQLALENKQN

Target: T1, AtBIK1 fused to the N-terminal fragment of YFP (Arabidopsis thaliana) (UniProt O48814)
T1 sequence: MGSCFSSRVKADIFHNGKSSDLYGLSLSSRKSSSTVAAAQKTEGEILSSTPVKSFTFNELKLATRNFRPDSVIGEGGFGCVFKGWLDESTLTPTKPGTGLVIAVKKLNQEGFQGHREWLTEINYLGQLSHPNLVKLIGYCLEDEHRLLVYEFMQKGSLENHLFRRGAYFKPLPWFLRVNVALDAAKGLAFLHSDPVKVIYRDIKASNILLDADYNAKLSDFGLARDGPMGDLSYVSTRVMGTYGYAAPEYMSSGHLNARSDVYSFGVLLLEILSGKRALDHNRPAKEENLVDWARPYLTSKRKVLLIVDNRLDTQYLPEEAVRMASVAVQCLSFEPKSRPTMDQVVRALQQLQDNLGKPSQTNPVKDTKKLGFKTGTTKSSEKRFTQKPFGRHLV
Assay: split reporter; BiFC: RLCKs fused with YFPc co-infiltrated into Nicotiana benthamiana leaves with AtBIK1 fused to YFPn; YFP fluorescence by confocal microscopy 48 h after infiltration

At4g02630 fused with the C-terminal fragment of YFP (from UniProt O22764)
binding: binds
